US12440528B2, “Methods of treating ovarian cancer with hemp extract” (Ecofibre USA Inc., priority 2021, dated 2025)

Test system: patient derived organoids (PD3D Cell Culture)
Assay: Calculated IC50 in PD3D cell culture of the patient derived organoids
Assay type: cell-based, human

COc1cc2c(c(OC)c1OC)-c1ccc(OC)c(=O)cc1[C@@H](NC(C)=O)CC2 [Colchicine]
Calculated IC50 PD3D Cell Culture: Not Reached

CC(C)NCC(O)COc1cccc2ccccc12 (centres unmarked) [Propranolol]
Calculated IC50 PD3D Cell Culture: Not Reached
